Results from patent US6559289B1, “Use of growth hormone or analogues thereof for the treatment of mammals with familial hypercholesterolemia” (Salhtech I Goteborg AB, priority 1998, dated 2003).

Test system: LDLRKO mice
Assay: Cholestyramine, atorvastatin and GH alone and in combination: plasma cholesterol and triglycerides
Assay type: in vivo
Conditions: 6 days of treatment
Excerpt: The studies were approved by the Institutional Animal Care and Use Committee, Sweden. Altogether 75 male LDLRKO and 45 C57 BL/6J mice were purchased from Bommice, Denmark. Animals were housed under standardized conditions in groups of ten. The mice had free access to water and chow; the light cycle hours were between 6 a.m. and 6:00 p.m. At the start of the experiment, osmotic mini pumps containing GH were implanted subcutaneously under light ether anesthesia. Non-GH treated animals were sham-operated. Recombinant human GH (Genotropin®), purchased from Pharmacia & Upjohn, was infused at a rate of 1.0 mg/kg per day. After six days of infusion, animals where anesthetized with ether, and blood was collected from the eye. The mice where thereafter killed by cervical dislocation. The livers were immediately removed and when indicated, 1 g of liver was taken for subsequent preparation of microsomes for assay of enzyme activity as described below. The remaining liver was immediately frozen in liquid nitrogen and stored at −70° C.
In the experiment comparing the effects of cholestyramine, atorvastatin, GH, and combinations thereof, animals were bled from the eye under light ether anesthesia and were not killed. […]
The total hepatic cholesterol was determined, following extraction and subsequent drying under nitrogen from liver samples, as described (Rudling M. J. Lipid Res. 33: 493-50 1992). […]

## CC(C)c1c(C(=O)Nc2ccccc2)c(-c2ccccc2)c(-c2ccc(F)cc2)n1CC[C@@H](O)C[C@@H](O)CC(=O)O [atorvastatin]
Drug alone
  effect on plasma cholesterol (in words): no effects
Groups of 5
  reduction of plasma triglycerides: approx. 20%
